Results: publication PMC9789059
These are yes or no findings as the source states them, for the method shown. Binding seen in cells or lysates may run through a third protein. Some entries that bind do so weakly or less than the wild type.

Chains of the proteins cited; added tags and fusions are not shown. Lines headed by an entry give the natural chain unless they say otherwise; changes in a name come on top. A line that says so, or that is headed by a name, gives the form on record, which may keep a tag or linker. Residues count along the entry.
Pyruvate kinase M2 (PKM2), endogenous in neonatal rat cardiomyocytes (rat (endogenous in NRCMs)) (P11980, form named): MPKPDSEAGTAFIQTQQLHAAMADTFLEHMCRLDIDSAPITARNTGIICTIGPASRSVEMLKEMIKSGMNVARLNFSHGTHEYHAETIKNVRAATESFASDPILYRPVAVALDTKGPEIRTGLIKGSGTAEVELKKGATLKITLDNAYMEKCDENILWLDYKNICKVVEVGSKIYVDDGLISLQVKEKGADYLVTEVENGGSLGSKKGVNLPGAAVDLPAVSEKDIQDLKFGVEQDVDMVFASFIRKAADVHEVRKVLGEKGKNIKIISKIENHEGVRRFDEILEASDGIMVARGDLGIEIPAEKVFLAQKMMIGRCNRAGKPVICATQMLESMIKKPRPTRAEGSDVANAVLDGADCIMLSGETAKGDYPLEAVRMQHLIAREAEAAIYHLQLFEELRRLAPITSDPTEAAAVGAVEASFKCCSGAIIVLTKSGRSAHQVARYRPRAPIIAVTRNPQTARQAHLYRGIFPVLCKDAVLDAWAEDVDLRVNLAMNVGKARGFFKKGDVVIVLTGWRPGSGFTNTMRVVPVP
UniProt P14618: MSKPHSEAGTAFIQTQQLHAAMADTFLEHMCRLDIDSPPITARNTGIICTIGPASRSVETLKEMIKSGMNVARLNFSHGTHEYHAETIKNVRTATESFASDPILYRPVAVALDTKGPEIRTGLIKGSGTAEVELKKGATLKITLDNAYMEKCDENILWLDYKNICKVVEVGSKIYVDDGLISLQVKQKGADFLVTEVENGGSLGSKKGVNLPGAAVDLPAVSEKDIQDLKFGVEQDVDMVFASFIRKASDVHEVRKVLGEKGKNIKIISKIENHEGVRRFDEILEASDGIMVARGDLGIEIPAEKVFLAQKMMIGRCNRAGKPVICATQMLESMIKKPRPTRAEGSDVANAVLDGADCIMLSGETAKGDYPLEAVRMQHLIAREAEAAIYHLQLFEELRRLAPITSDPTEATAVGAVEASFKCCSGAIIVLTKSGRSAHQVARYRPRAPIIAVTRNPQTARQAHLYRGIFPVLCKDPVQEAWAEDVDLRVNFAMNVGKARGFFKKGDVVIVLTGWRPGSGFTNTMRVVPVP
GFP tagged PKM2 exon 10 (exon 10 only): residues 436-497 of P14618
GFP tagged Pkm2-Δexon 10 (exon 10 deletion) (P14618, form named): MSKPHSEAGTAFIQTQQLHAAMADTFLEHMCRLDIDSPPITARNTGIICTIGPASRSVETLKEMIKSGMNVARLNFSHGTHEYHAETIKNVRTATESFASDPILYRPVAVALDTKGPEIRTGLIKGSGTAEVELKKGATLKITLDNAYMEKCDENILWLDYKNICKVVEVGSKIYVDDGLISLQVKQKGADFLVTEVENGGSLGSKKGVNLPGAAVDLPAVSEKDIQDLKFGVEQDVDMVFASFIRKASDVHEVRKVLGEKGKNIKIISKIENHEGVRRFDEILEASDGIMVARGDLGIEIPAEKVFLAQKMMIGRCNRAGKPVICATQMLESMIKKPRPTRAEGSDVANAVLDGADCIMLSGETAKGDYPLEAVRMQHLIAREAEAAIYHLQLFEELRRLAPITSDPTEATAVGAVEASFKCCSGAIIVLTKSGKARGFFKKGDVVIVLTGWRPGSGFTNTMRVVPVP
Sarcoplasmic/endoplasmic reticulum calcium ATPase 2a (SERCA2a), endogenous in neonatal rat cardiomyocytes (P11507-2, form named): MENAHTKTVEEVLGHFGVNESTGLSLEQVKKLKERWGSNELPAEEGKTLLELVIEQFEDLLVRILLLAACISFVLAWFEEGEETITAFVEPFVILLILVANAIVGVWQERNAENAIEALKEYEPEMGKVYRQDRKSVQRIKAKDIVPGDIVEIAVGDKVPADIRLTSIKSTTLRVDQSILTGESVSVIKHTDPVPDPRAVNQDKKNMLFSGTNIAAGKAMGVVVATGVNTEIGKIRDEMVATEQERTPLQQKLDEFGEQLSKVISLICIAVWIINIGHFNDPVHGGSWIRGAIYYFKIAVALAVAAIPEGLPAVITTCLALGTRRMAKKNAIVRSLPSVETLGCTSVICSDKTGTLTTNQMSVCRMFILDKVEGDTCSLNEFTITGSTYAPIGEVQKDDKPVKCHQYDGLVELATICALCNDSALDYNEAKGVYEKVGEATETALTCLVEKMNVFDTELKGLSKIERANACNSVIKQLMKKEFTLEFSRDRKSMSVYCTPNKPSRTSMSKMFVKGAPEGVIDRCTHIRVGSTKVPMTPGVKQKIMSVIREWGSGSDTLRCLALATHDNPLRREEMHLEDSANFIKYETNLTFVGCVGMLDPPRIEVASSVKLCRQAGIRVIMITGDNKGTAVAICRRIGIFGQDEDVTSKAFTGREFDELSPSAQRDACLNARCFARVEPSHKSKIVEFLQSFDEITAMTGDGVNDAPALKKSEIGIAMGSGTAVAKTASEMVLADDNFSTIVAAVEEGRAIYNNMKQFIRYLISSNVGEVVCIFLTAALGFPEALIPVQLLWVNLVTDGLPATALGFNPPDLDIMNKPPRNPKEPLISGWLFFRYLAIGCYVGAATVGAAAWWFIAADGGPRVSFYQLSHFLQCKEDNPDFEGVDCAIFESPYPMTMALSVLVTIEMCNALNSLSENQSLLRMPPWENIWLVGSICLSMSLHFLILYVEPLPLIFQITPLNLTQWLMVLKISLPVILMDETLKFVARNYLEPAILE
Flag-SERCA2a (P16615-2, form named): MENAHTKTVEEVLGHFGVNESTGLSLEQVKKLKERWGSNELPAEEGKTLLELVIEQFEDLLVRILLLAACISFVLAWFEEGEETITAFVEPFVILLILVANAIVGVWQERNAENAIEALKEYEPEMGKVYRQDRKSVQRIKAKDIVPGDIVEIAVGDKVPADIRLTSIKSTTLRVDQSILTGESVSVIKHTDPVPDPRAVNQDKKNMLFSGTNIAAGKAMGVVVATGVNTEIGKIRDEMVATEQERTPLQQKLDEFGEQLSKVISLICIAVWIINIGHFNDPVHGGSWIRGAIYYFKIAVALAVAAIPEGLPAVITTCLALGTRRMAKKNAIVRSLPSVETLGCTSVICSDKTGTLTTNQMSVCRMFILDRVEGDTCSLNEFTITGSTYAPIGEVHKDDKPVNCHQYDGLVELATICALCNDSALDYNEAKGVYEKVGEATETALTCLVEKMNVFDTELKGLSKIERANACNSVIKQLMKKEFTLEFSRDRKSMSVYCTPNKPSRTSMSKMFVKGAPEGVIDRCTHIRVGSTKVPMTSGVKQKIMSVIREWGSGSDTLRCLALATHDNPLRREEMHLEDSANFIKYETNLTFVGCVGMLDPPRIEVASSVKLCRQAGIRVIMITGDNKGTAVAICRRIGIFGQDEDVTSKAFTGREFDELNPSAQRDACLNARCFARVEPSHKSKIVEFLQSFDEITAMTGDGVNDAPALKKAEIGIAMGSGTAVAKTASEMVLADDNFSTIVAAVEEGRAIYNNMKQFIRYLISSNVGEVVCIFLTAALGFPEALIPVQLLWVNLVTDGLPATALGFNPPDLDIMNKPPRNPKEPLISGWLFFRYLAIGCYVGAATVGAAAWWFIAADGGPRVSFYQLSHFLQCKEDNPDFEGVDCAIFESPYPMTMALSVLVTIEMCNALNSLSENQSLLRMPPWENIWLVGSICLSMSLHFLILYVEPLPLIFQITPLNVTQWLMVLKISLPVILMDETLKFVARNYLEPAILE

What was measured:
[1] = molecular target: Pyruvate kinase M2 (PKM2), endogenous in neonatal rat cardiomyocytes (rat (endogenous in NRCMs)) (UniProt P11980); assay: co-IP; endogenous proteins; NRCM RIPA lysate incubated with anti-PKM2 antibody or IgG overnight at 4 °C, captured on protein A/G agarose; Western blot for SERCA2a
[2] = molecular target: GFP tagged PKM2 exon 10 (exon 10 only) (human) (UniProt P14618); assay: co-IP; HEK-293T co-transfected with Flag-SERCA2a and GFP-tagged PKM2 full-length or truncated forms, 48 h after transfection; immunoprecipitation by anti-GFP antibody, Western blot
[3] = molecular target: GFP tagged Pkm2-Δexon 10 (exon 10 deletion) (human) (UniProt P14618); assay: as above
[4] = molecular target: GFP tagged Pkm2 full-length (homo-GFP-PKM2) (human) (UniProt P14618); assay: as above

| Substance | binding [1] | binding [2] | binding [3] | binding [4] |
| --- | --- | --- | --- | --- |
| Sarcoplasmic/endoplasmic reticulum calcium ATPase 2a (SERCA2a), endogenous in neonatal rat cardiomyocytes (from UniProt P11507-2 1-997) | binds |  |  |  |
| Flag-SERCA2a (from UniProt P16615-2 1-997) |  | no binding | binds | binds |
